Data set [1] relates to Human VDR + RXRWT. The experiment in a line: competition with a labelled probe. The following applies: 100-fold excess vs N1, with and without 1,25D3; 100 mM KCl, 10 mM HEPES pH 7.6, 1 mM EDTA, 20 mM MgCl2, 1 mM DTT, 0.1 mg/ml BSA, 4 ug/mL salmon sperm DNA, 1% glycerol, 25 C; 100 ng each protein, 1 pmol probe in 20 uL; recombinant protein; label: none (unlabeled competitor).

For data set [2], the system named is Skate VDR + RXRWT. The experiment in a line: competition with a labelled probe. The following applies: 100-fold excess vs N1, with and without 1,25D3; 100 mM KCl, 10 mM HEPES pH 7.6, 1 mM EDTA, 20 mM MgCl2, 1 mM DTT, 0.1 mg/ml BSA, 4 ug/mL salmon sperm DNA, 1% glycerol, 25 C; 100 ng each protein, 1 pmol probe in 20 uL; recombinant protein; label: none (unlabeled competitor).

Data set [3] deals with Lamprey VDR + RXRWT. The experiment in a line: competition with a labelled probe. Particulars: 100-fold excess vs N1, with and without 1,25D3; 100 mM KCl, 10 mM HEPES pH 7.6, 1 mM EDTA, 20 mM MgCl2, 1 mM DTT, 0.1 mg/ml BSA, 4 ug/mL salmon sperm DNA, 1% glycerol, 25 C; 100 ng each protein, 1 pmol probe in 20 uL; recombinant protein; label: none (unlabeled competitor).
In data set [4] the test system is Bichir VDR + RXRWT. The experiment in a line: competition with a labelled probe. Particulars: 100-fold excess vs N1, with and without 1,25D3; 100 mM KCl, 10 mM HEPES pH 7.6, 1 mM EDTA, 20 mM MgCl2, 1 mM DTT, 0.1 mg/ml BSA, 4 ug/mL salmon sperm DNA, 1% glycerol, 25 C; 100 ng each protein, 1 pmol probe in 20 uL; recombinant protein; label: none (unlabeled competitor).

The test system of data set [5] is Human VDR + RXRWT. The experiment in a line: EMSA. Particulars: 100 mM KCl, 10 mM HEPES pH 7.6, 1 mM EDTA, 20 mM MgCl2, 1 mM DTT, 0.1 mg/ml BSA, 4 ug/mL salmon sperm DNA, 1% glycerol, 25 C, 100 ng each protein, 1 pmol probe in 20 uL, recombinant protein, label: 5' Cy5 (unlabeled as competitor). On the technique in general: A gel shift assay detects complexes by their altered migration in electrophoresis.

The test system of data set [6] is Skate VDR + RXRWT. The experiment in a line: EMSA. The following applies: 100 mM KCl, 10 mM HEPES pH 7.6, 1 mM EDTA, 20 mM MgCl2, 1 mM DTT, 0.1 mg/ml BSA, 4 ug/mL salmon sperm DNA, 1% glycerol, 25 C, 100 ng each protein, 1 pmol probe in 20 uL, recombinant protein, label: 5' Cy5 (unlabeled as competitor).
The subject of data set [7] is Lamprey VDR + RXRWT. The experiment in a line: EMSA. Particulars: 100 mM KCl, 10 mM HEPES pH 7.6, 1 mM EDTA, 20 mM MgCl2, 1 mM DTT, 0.1 mg/ml BSA, 4 ug/mL salmon sperm DNA, 1% glycerol, 25 C, 100 ng each protein, 1 pmol probe in 20 uL, recombinant protein, label: 5' Cy5 (unlabeled as competitor).
The subject of data set [8] is Bichir VDR + RXRWT. The experiment in a line: EMSA. The following applies: 100 mM KCl, 10 mM HEPES pH 7.6, 1 mM EDTA, 20 mM MgCl2, 1 mM DTT, 0.1 mg/ml BSA, 4 ug/mL salmon sperm DNA, 1% glycerol, 25 C, 100 ng each protein, 1 pmol probe in 20 uL, recombinant protein, label: 5' Cy5 (unlabeled as competitor).
Setting [9] is: 100 nM 1,25D3 (enhanced binding).
Setting [10] is: no ligand (ethanol), less than with 1,25D3.

Construct, isoform or probe ends are uncertain for at least one entry. For some assays here: A negative result means that nothing was seen under these conditions.

For “AGCTTCAGAACAAGGAGAACAGAGAGC (double strand) [mutant canonical VDRE]”, the binding result in the data set with Human VDR + RXRWT [1], in the data set with Skate VDR + RXRWT [2], in the data set with Lamprey VDR + RXRWT [3] and with Bichir VDR + RXRWT [4] was “no binding” in each case.

Regarding “AGCTTCAGGTCAAGGAGGTCAGAGAGC (double strand) [canonical VDRE (DR3)]”, the binding result with Human VDR + RXRWT [5] (setting [9]), with Human VDR + RXRWT [5] (setting [10]), in the data set with Skate VDR + RXRWT [6] (setting [9]), with Skate VDR + RXRWT [6] (setting [10]), in the data set with Lamprey VDR + RXRWT [7] (setting [9]) and with Lamprey VDR + RXRWT [7] (setting [10]) was “binds” throughout. For the same sequence, the binding result in the data set on Bichir VDR + RXRWT [8] (setting [9]) and with Bichir VDR + RXRWT [8] (setting [10]) was “binds” in each case.

As for “GCTGAATGAACTTGCTGACCCTCTGCT (double strand) [XREM VDRE (CYP3A4 DR3)]”, the binding result in the data set with Human VDR + RXRWT [5] (setting [9]), in the data set with Human VDR + RXRWT [5] (setting [10]), with Skate VDR + RXRWT [6] (setting [9]), with Skate VDR + RXRWT [6] (setting [10]), with Lamprey VDR + RXRWT [7] (setting [9]) and with Lamprey VDR + RXRWT [7] (setting [10]) was “binds” each time. Further, the binding result in the data set with Bichir VDR + RXRWT [8] (setting [9]) and in the data set with Bichir VDR + RXRWT [8] (setting [10]) was “binds” each time.
